# Source: paper doi:10.1101/2022.12.19.521009
# Molecular target: BD-UmSee1 (Ustilago maydis)
# Test: two-hybrid
substance,measurement,value
AD-ZmSIP2 (from UniProt A0A1D6G9Q0),binding,binds

# Results are given in words; binding and its absence hold for the method and conditions named. Binding can be weak; no strength is given.
